Results taken from the supplement of paper PMC6078165.
± gives the standard deviation of the averaged measurements. Values are relative to the signal before dosing, not to a vehicle control; the signal also falls without drug.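 Fibroblast labels name human fibroblasts: mostly primary ones from tissues such as uterus (C12385, HUF), lung (H6013), bone (Hs27A), adrenal (HADF) and skin (WS1), plus mammary HMF and breast cancer-associated Hs343T. The cancer cells are basal-like or mesenchymal-like triple-negative breast cancer lines. The paper calls a changed response a hit when it shifts by more than 3x the replicate standard deviation. The tissue of the other fibroblasts is not given here.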

System: BT20
Experiment: relative JC-1 red fluorescence (viability) vs pre-drug, coculture with fibroblast (fraction); higher = more viable cancer cells
Experimental: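 JC-1 labelled TNBC cells cocultured 1:1 (1,500 cells each) with CellTrace Violet stained primary or stromal fibroblasts in 384-well plates in FluoroBrite medium, treated with one of 42 anticancer drugs at 0.1, 1, 10 or 100 uM. JC-1 red fluorescence (mitochondrial integrity in cancer cells only) was read by plate reader every 8 h for 72 h. Values are normalised to each well's pre-drug value. The stock of one drug was tenfold lower, so its dose labels may be too high.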

CC(=O)c1c(C)c2cnc(Nc3ccc(N4CCNCC4)cn3)nc2n(C2CCCC2)c1=O [Palbociclib]
relative JC-1 red fluorescence
Details | 8 h | 16 h | 24 h | 32 h | 40 h | 48 h | 56 h | 64 h | 72 h
0.1 µM, coculture fibroblast: C12385 | 0.9292 ± 0.0026 | 0.863 ± 0.017 | 0.858 ± 0.03 | 0.801 ± 0.02 | 0.751 ± 0.016 | 0.728 ± 0.01 | 0.704 ± 0.012 | 0.686 ± 0.014 | 0.675 ± 0.011
0.1 µM, coculture fibroblast: H6013 | 0.87 ± 0.15 | 0.889 ± 0.037 | 0.852 ± 0.032 | 0.8 ± 0.037 | 0.766 ± 0.041 | 0.748 ± 0.035 | 0.748 ± 0.04 | 0.728 ± 0.04 | 0.722 ± 0.05
0.1 µM, coculture fibroblast: H6019 | 0.8517 ± 0.0024 | 0.759 ± 0.012 | 0.729 ± 0.018 | 0.669 ± 0.028 | 0.62 ± 0.037 | 0.601 ± 0.046 | 0.569 ± 0.063 | 0.545 ± 0.07 | 0.532 ± 0.072
0.1 µM, coculture fibroblast: H6076 | 0.984 ± 0.015 | 0.8898 ± 0.0088 | 0.814 ± 0.015 | 0.7833 ± 0.0056 | 0.7454 ± 0.0026 | 0.7254 ± 0.0048 | 0.7067 ± 0.007 | 0.703 ± 0.01 | 0.682 ± 0.014
0.1 µM, coculture fibroblast: H6231 | 0.9263 ± 0.003 | 0.93 ± 0.039 | 0.811 ± 0.015 | 0.742 ± 0.019 | 0.695 ± 0.015 | 0.651 ± 0.022 | 0.616 ± 0.011 | 0.5965 ± 0.0044 | 0.569 ± 0.011
0.1 µM, coculture fibroblast: HADF | 0.896 ± 0.14 | 0.882 ± 0.018 | 0.86 ± 0.017 | 0.816 ± 0.023 | 0.787 ± 0.017 | 0.756 ± 0.022 | 0.7367 ± 0.0014 | 0.721 ± 0.0098 | 0.695 ± 0.013
0.1 µM, coculture fibroblast: HCFa | 0.949 ± 0.031 | 0.859 ± 0.072 | 0.812 ± 0.074 | 0.768 ± 0.085 | 0.731 ± 0.1 | 0.708 ± 0.12 | 0.682 ± 0.13 | 0.67 ± 0.14 | 0.635 ± 0.16
0.1 µM, coculture fibroblast: HCPF | 0.863 ± 0.036 | 0.954 ± 0.02 | 0.8558 ± 0.0062 | 0.8003 ± 0.0051 | 0.7555 ± 0.0045 | 0.7099 ± 0.004 | 0.6628 ± 0.0044 | 0.642 ± 0.0035 | 0.6083 ± 0.006
0.1 µM, coculture fibroblast: HHSteC | 0.9133 ± 0.0027 | 0.84 ± 0.0046 | 0.8196 ± 0.004 | 0.7432 ± 0.0032 | 0.698 ± 0.017 | 0.665 ± 0.017 | 0.641 ± 0.019 | 0.617 ± 0.016 | 0.586 ± 0.013
0.1 µM, coculture fibroblast: HMF | 0.773 ± 0.11 | 0.919 ± 0.0097 | 0.815 ± 0.012 | 0.753 ± 0.026 | 0.702 ± 0.026 | 0.658 ± 0.03 | 0.621 ± 0.041 | 0.598 ± 0.05 | 0.572 ± 0.043
0.1 µM, coculture fibroblast: HPFa | 0.972 ± 0.032 | 0.896 ± 0.042 | 0.893 ± 0.059 | 0.807 ± 0.071 | 0.789 ± 0.093 | 0.764 ± 0.12 | 0.734 ± 0.13 | 0.721 ± 0.15 | 0.684 ± 0.17
0.1 µM, coculture fibroblast: HUF | 0.9055 ± 0.0022 | 0.808 ± 0.017 | 0.804 ± 0.013 | 0.732 ± 0.027 | 0.69 ± 0.035 | 0.66 ± 0.034 | 0.652 ± 0.026 | 0.638 ± 0.039 | 0.623 ± 0.036
0.1 µM, coculture fibroblast: Hs5 | 0.76 ± 0.025 | 0.929 ± 0.026 | 0.847 ± 0.021 | 0.789 ± 0.016 | 0.735 ± 0.013 | 0.6961 ± 0.0043 | 0.6517 ± 0.0025 | 0.618 ± 0.0054 | 0.5948 ± 0.0053
0.1 µM, coculture fibroblast: Hs27A | 0.851 ± 0.03 | 0.885 ± 0.16 | 0.886 ± 0.029 | 0.8714 ± 0.0031 | 0.817 ± 0.011 | 0.786 ± 0.02 | 0.76 ± 0.03 | 0.726 ± 0.042 | 0.671 ± 0.047
0.1 µM, coculture fibroblast: Hs343T | 0.9544 ± 0.0032 | 0.8595 ± 0.0041 | 0.7849 ± 0.0032 | 0.738 ± 0.013 | 0.697 ± 0.013 | 0.659 ± 0.019 | 0.619 ± 0.021 | 0.601 ± 0.014 | 0.571 ± 0.021
0.1 µM, coculture fibroblast: WS1 | 0.891 ± 0.052 | 0.785 ± 0.07 | 0.751 ± 0.14 | 0.698 ± 0.16 | 0.663 ± 0.18 | 0.654 ± 0.2 | 0.641 ± 0.23 | 0.626 ± 0.24 | 0.626 ± 0.26
1 µM, coculture fibroblast: C12385 | 0.891 ± 0.03 | 0.786 ± 0.04 | 0.769 ± 0.03 | 0.713 ± 0.04 | 0.665 ± 0.038 | 0.644 ± 0.029 | 0.623 ± 0.029 | 0.607 ± 0.024 | 0.59 ± 0.022
1 µM, coculture fibroblast: H6013 | 0.9028 ± 0.0049 | 0.873 ± 0.028 | 0.844 ± 0.046 | 0.802 ± 0.053 | 0.755 ± 0.051 | 0.747 ± 0.057 | 0.753 ± 0.052 | 0.731 ± 0.05 | 0.72 ± 0.053
1 µM, coculture fibroblast: H6019 | 0.882 ± 0.019 | 0.8017 ± 0.0074 | 0.795 ± 0.045 | 0.732 ± 0.066 | 0.691 ± 0.07 | 0.676 ± 0.079 | 0.64 ± 0.085 | 0.612 ± 0.092 | 0.59 ± 0.083
1 µM, coculture fibroblast: H6076 | 0.971 ± 0.035 | 0.9 ± 0.0088 | 0.8481 ± 0.0039 | 0.8207 ± 0.0056 | 0.81145 ± 0.00041 | 0.7912 ± 0.00071 | 0.785 ± 0.0094 | 0.785 ± 0.011 | 0.761 ± 0.016
1 µM, coculture fibroblast: H6231 | 0.779 ± 0.12 | 0.9819 ± 0.005 | 0.865 ± 0.0052 | 0.7912 ± 0.0023 | 0.74 ± 0.019 | 0.699 ± 0.019 | 0.658 ± 0.028 | 0.633 ± 0.039 | 0.603 ± 0.047
1 µM, coculture fibroblast: HADF | 0.965 ± 0.016 | 0.904 ± 0.028 | 0.882 ± 0.071 | 0.841 ± 0.065 | 0.814 ± 0.071 | 0.786 ± 0.076 | 0.77 ± 0.09 | 0.758 ± 0.083 | 0.73 ± 0.092
1 µM, coculture fibroblast: HCFa | 0.9068 ± 0.0013 | 0.892 ± 0.027 | 0.873 ± 0.043 | 0.821 ± 0.033 | 0.787 ± 0.034 | 0.759 ± 0.033 | 0.733 ± 0.031 | 0.717 ± 0.031 | 0.673 ± 0.025
1 µM, coculture fibroblast: HCPF | 0.817 ± 0.11 | 0.941 ± 0.038 | 0.873 ± 0.042 | 0.814 ± 0.049 | 0.769 ± 0.061 | 0.718 ± 0.067 | 0.681 ± 0.091 | 0.666 ± 0.088 | 0.631 ± 0.085
1 µM, coculture fibroblast: HHSteC | 0.929 ± 0.033 | 0.894 ± 0.053 | 0.877 ± 0.039 | 0.805 ± 0.037 | 0.763 ± 0.034 | 0.734 ± 0.031 | 0.707 ± 0.03 | 0.68 ± 0.026 | 0.659 ± 0.027
1 µM, coculture fibroblast: HMF | 0.869 ± 0.15 | 0.905 ± 0.041 | 0.821 ± 0.011 | 0.766 ± 0.0077 | 0.7388 ± 0.0064 | 0.701 ± 0.021 | 0.681 ± 0.037 | 0.664 ± 0.047 | 0.63 ± 0.03
1 µM, coculture fibroblast: HPFa | 0.938 ± 0.0091 | 0.917 ± 0.026 | 0.954 ± 0.044 | 0.894 ± 0.054 | 0.896 ± 0.06 | 0.863 ± 0.071 | 0.856 ± 0.079 | 0.83 ± 0.086 | 0.801 ± 0.1
1 µM, coculture fibroblast: HUF | 0.943 ± 0.016 | 0.8374 ± 0.0048 | 0.832 ± 0.025 | 0.78 ± 0.02 | 0.751 ± 0.033 | 0.718 ± 0.03 | 0.712 ± 0.031 | 0.702 ± 0.037 | 0.689 ± 0.042
1 µM, coculture fibroblast: Hs5 | 0.885 ± 0.16 | 0.896 ± 0.019 | 0.84 ± 0.045 | 0.784 ± 0.043 | 0.752 ± 0.057 | 0.715 ± 0.055 | 0.68 ± 0.059 | 0.657 ± 0.065 | 0.622 ± 0.059
1 µM, coculture fibroblast: Hs27A | 0.717 ± 0.014 | 0.917 ± 0.095 | 0.924 ± 0.015 | 0.895 ± 0.028 | 0.849 ± 0.029 | 0.832 ± 0.023 | 0.813 ± 0.02 | 0.785 ± 0.021 | 0.735 ± 0.023
1 µM, coculture fibroblast: Hs343T | 0.872 ± 0.1 | 0.8834 ± 0.0035 | 0.806 ± 0.044 | 0.756 ± 0.063 | 0.71 ± 0.061 | 0.679 ± 0.073 | 0.663 ± 0.093 | 0.653 ± 0.1 | 0.635 ± 0.13
1 µM, coculture fibroblast: WS1 | 0.885 ± 0.011 | 0.763 ± 0.022 | 0.736 ± 0.045 | 0.676 ± 0.06 | 0.629 ± 0.071 | 0.606 ± 0.076 | 0.581 ± 0.079 | 0.558 ± 0.089 | 0.551 ± 0.09
